Test results from PMC3827223, “Bioorthogonal Small Molecule Imaging Agents Allow Single-Cell Imaging of MET” (PLoS ONE, 2013).

Assays:
Type in all cases: cell-based, human
MET in OVCA429 cells = test: Fixed cell fluorescence imaging with Tz-CFDA and MET immunostaining, OVCA429; conditions: 40 nM, then 1 μM Tz-CFDA
OVCA429 cells = test: Live cell fluorescence imaging, two-step vs one-step labeling, OVCA429; conditions: live OVCA429 cells, 40, 200 and 1000 nM, 30 min; TCO agent followed by 1 μM Tz-CFDA
[1] = test system: MET, PDGFRα, RON, AXL, KDR in OVCA429 cells; test: Fixed cell imaging of Foretinib-TCO/Tz-CFDA with immunostaining of 5 RTKs; conditions: 200 nM, then 1 μM Tz-CFDA

SMILES: COc1cc2c(Oc3ccc(NC(=O)C4(C(=O)Nc5ccc(F)cc5)CC4)cc3F)ccnc2cc1OCCCN1CCOCC1 [Foretinib, N1’-[3-fluoro-4-[[6-methoxy-7-(3-morpholinopropoxy)-4-quinolinyl]oxy]phenyl]-N1-(4-fluorophenyl)cyclopropane-1,1-dicarboxamide, reference compound]
- background signal of unlabeled control with Tz-CFDA (MET in OVCA429 cells): low background signal

SMILES: COc1cc2c(Oc3ccc(NC(=O)C4(C(=O)Nc5ccc(F)cc5)CC4)cc3F)ccnc2cc1OCCCN1CCN(C(=O)CCc2ccc3n2[B-](F)(F)[N+]2=C(C)C=C(C)C2=C3)CC1 [Foretinib-BODIPY-FL, 5,5-difluoro-7-(3-(4-(3-((4-(2-fluoro-4-(1-((4-fluorophenyl)carbamoyl)cyclopropanecarboxamido)phenoxy)-6-methoxyquinolin-7-yl)oxy)propyl)piperazin-1-yl)-3-oxopropyl)-1,3-dimethyl-5H-dipyrrolo[1,2-c:2',1'-f][1,3,2]diazaborinin-4-ium-5-uide]
- cellular fluorescence signal / staining (OVCA429 cells): cellular staining only at the highest concentration tested

SMILES: COc1cc2c(Oc3ccc(NC(=O)C4(C(=O)Nc5ccc(F)cc5)CC4)cc3F)ccnc2cc1OCCCN1CCN(C(=O)OC2CC/C=C/CCC2)CC1 (stereo not shown) [Foretinib-TCO, (E)-cyclooct-4-en-1-yl 4-(3-((4-(2-fluoro-4-(1-((4-fluorophenyl)carbamoyl)cyclopropanecarboxamido)phenoxy)-6-methoxyquinolin-7-yl)oxy)propyl)piperazine-1-carboxylate]
- co-localization with membrane signal from MET, AXL and RON antibody staining [1]: good co-localization
- co-localization with PDGFRα and KDR antibody staining ([1]; low expression of these proteins in OVCA429): less co-localization
- cellular fluorescence signal / staining (OVCA429 cells): dose-dependent increase in cellular fluorescence signal

SMILES: O=C(NCCn1cc(-c2cnc3nnn(Cc4ccc5ncccc5c4)c3n2)cn1)OC1CC/C=C/CCC1 (stereo not shown) [PF04217903-TCO, (E)-cyclooct-4-en-1-yl (2-(4-(1-(quinolin-6-ylmethyl)-1H-[1,2,3]triazolo[4,5-b]pyrazin-6-yl)-1H-pyrazol-1-yl)ethyl)carbamate]
- co-localization of drug and MET antibody co-staining (MET in OVCA429 cells): superb co-localization
- Manders correlation coefficient of colocalization with MET antibody staining (MET in OVCA429 cells; selected image): 0.969
